Reference: PubChem BioAssay AID2685 (National Center for Advancing Translational Sciences (NCATS), 2010)
Some of the results follow. These are further read-outs of the screen, such as a control signal, another cell line or another target. No call is given for them. Compounds called inactive in the main read-out are mostly missing here. Potencies come from curve fits of mixed quality, noted in brackets.

Experiment: qHTS Assay for Lipid Storage Modulators in Drosophila S3 Cells;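 for cell number change: cells counted by Cell Tracker Red CMTPX staining in the red channel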
Settings: BODIPY lipid droplet fluorescence, 18-24 h; for cell number change: measured here: cell count max response, cells fed with added oleic acid
Outline: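 Drosophila S3 cells got compounds at several concentrations plus oleic acid (400 uM solution). Laser-scanning cytometry with 488 nm excitation read lipid droplets at 500-530 nm and cells at 575-640 nm. Percent activity was relative to 20 uM Triacsin C.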

[1] = measured here: lipid fluorescence (Fed channel) AC50, cells fed with added oleic acid
[2] = measured here: cell number channel AC50, cells fed with added oleic acid

Row | Structure (SMILES) | cell number change | AC50 [1] | AC50 [2]
1 | O=c1c2c3c(sc2nc2n1CCC2)CCC3 | -14.3% | 0.13 µM [falling, full curve, poor fit] | –
2 | CN1CCN(C(=O)CCCN2C(=O)/C(=C/c3ccc(Cl)cc3)SC2=S)CC1 | -28.5% | 1.46 µM [falling, full curve] | –
3 | CCN(CC)C(=O)N1CCc2ccccc21 | 112% | – | –
4 | Cc1ccc(-n2[nH]c(C)c(/C=N/c3ccccn3)c2=O)cc1 | 37% | – | 6.51 µM [rising, full curve, poor fit]
5 | O=C(Nc1ccc(Cl)cc1)C1CCN(C(=O)c2cccs2)CC1 | 18.9% | 0.206 µM [rising, single point] | –
6 | COC(=O)c1cc(C#N)c(OC)nc1C | 8.96% | – | –
7 | CCOc1ccc(S(=O)(=O)Nc2ccccc2C(=O)N2CCOCC2)cc1 | -9.21% | 35.5 µM [rising, single point] | –
8 | O=C(Nc1ccc2nc(SCc3ccc(Cl)cc3)sc2c1)c1ccccc1C(=O)N1CCOCC1 | 9.51% | 20.6 µM [rising, partial curve] | –
9 | COc1cc([N+](=O)[O-])cc([N+](=O)[O-])c1NC(=O)N1CCOCC1 | -0.833% | 8.2 µM [falling, single point] | –
10 | COc1ccc(C2C(C(N)=O)=C(C)Nc3nc(-c4ccccc4OC)nn32)cc1OC (configuration not stated) | 18.4% | 16.4 µM [rising, single point] | –
11 | CC1CC(C)CN(C(=O)C2CCN(S(=O)(=O)c3ccc4c(c3)CC(C)N4C(=O)C3CC3)CC2)C1 (configuration not stated) | -8.57% | 16.4 µM [falling, partial curve] | –
12 | COc1ccc(O)c(C(=O)c2cc(C#N)c(=O)n(CC3CCCO3)c2)c1 (configuration not stated) | 20.2% | 0.0651 µM [rising, full curve, poor fit] | –
13 | CC(=O)c1ccc(OCC(O)CN2CCN(S(=O)(=O)c3cccc(Br)c3)CC2)cc1 (configuration not stated) | -9.52% | 29.1 µM [falling, single point] | –
14 | CC(=O)CCC(=O)NCCc1ccccc1F | -15.2% | 1.3 µM [falling, full curve, poor fit] | –
15 | CCCn1c2c(c(O)c(C(=O)Nc3nc(C)cs3)c1=O)CCCC2 | -0.0678% | – | –
16 | C#CCOCCOCCOCCNc1nc(N2CCN(C(=O)CCCCCCCCCCNC(=O)[C@H]([C@@H](C)CC)n3cc(CCCCCN)nn3)CC2)nc(N2CCN(C(=O)CCCCCCCCCCNC(=O)[C@H]([C@@H](C)CC)n3cc(CCCCN=C(N)N)nn3)CC2)n1 | -86.8% | 29.1 µM [falling, single point] | 13 µM [falling, partial curve]
17 | COc1cc(NC(=O)c2cccc(C)c2)c(Cl)cc1[N+](=O)[O-] | -69.9% | 23.1 µM [falling, partial curve] | 29.1 µM [falling, single point]
18 | CCOC(=O)/C(C(C)=O)=C1/OC(=O)c2ccccc21 | -47.4% | 20.6 µM [falling, partial curve] | 0.231 µM [falling, full curve]
19 | Cc1nnc(SCC(=O)NCc2ccco2)n1-c1ccccc1 | -63.4% | – | 16.4 µM [falling, partial curve]
20 | CCOC(=O)C1(CC)NC(c2ccco2)C2C(=O)N(c3ccc(C)cc3)C(=O)C21 (configuration not stated) | -1.69% | – | –

Row | Structure (SMILES) | cell number change | AC50 [1] | AC50 [2]
21 | CC(=O)NC(=S)Nc1ccc(-c2nc3ccc(C)cc3s2)cc1 | -27.6% | 20.6 µM [falling, single point] | –
22 | Cc1csc(NC(=O)c2c(-c3ccccc3)noc2C)n1 | -22.4% | 3.55 µM [rising, partial curve, poor fit] | –
23 | CC(C)N1C(=O)NC2(c3ccccc3)N(C)C(=O)N(C)C12c1ccccc1 (configuration not stated) | -2.41% | 1.3 µM [falling, full curve, poor fit] | –
24 | COc1ccc(/C=C/C(=O)Nc2ccc(C(N)=O)cc2)cc1OC | 55.7% | – | 29.1 µM [rising, single point]
25 | CCC(CC)C(=O)NCc1ccc(OC)cc1 | -48.7% | – | 29.1 µM [falling, single point]
26 | CCN(CC)S(=O)(=O)c1ccc(C(=O)NCC2(N3CCOCC3)CCCCC2)cc1 | -9.08% | 1.3 µM [falling, full curve, poor fit] | –
27 | O=C(N/N=C/c1ccc(OC2CSC2)cc1)c1ccccc1 | -17% | 0.461 µM [rising, single point] | –
28 | CCS(=O)(=O)N1CCC(NC(=O)c2cc(OC)cc(OC)c2)CC1 | 20.7% | 29.1 µM [falling, single point] | –
29 | CC1(C)Cc2ccccc2C(CSc2ccccc2C(=O)O)=N1 | -30.7% | 32.6 µM [falling, single point] | 32.6 µM [falling, single point]
30 | CCC(C(=O)NCc1ccncc1)c1ccccc1 (configuration not stated) | 5.4% | 0.366 µM [falling, full curve, poor fit] | –
31 | Cc1cccc(C(=O)C2CCN(S(=O)(=O)c3ccc(C(=O)O)cc3)CC2)c1 | 6.41% | – | –
32 | CCOC(=O)C(CC)(CCC(=O)O)c1csc(Nc2ccc(C)cc2)n1 (configuration not stated) | 12.4% | 13 µM [rising, partial curve, poor fit] | –
33 | CCOc1ccccc1N1CCN(C(=O)C2c3ccccc3Oc3ccccc32)CC1 | 10.5% | – | –
34 | COc1ccc(NCc2nn(CC(=O)c3ccc(Br)cc3)c3[n+]2CCCCC3)cc1 | 1.45% | – | 1.16 µM [rising, full curve, poor fit]
35 | CCOc1ccccc1NC(=O)CSc1nnc(CNC(=O)c2ccco2)o1 | 36.9% | – | 20.6 µM [rising, partial curve, poor fit]
36 | CC(C)OCCCn1c(=O)c2ccccc2n2c(CCC(=O)N3CCN(c4ccccn4)CC3)nnc12 | – | 2.91 µM [falling, partial curve] | –
37 | COc1ccc(N(C(=O)c2ccco2)C(C(=O)NC2CCCC2)c2ccccc2)cc1 (configuration not stated) | 5.26% | 12.6 µM [falling, single point] | –
38 | COc1ccc(OC)c(NC(=O)CC2C(=O)NCCN2C(=O)c2ccccc2)c1 (configuration not stated) | 37.8% | 0.206 µM [falling, single point] | 0.00461 µM [rising, full curve, poor fit]
39 | COc1ccc(N=Nc2cc(C)ccc2O)cc1 | -49.2% | 14.6 µM [falling, partial curve, poor fit] | 14.6 µM [falling, partial curve, poor fit]
40 | COc1ccccc1NCCC(=O)OCC(=O)NC1CCCC(C)C1C (configuration not stated) | -11.2% | 13 µM [falling, partial curve, poor fit] | –

Row | Structure (SMILES) | cell number change | AC50 [1] | AC50 [2]
41 | CN(CC(=O)NCC(=O)Nc1ccc(F)cc1)C1CCS(=O)(=O)C1 (configuration not stated) | 11.4% | 23.1 µM [rising, single point] | –
42 | Cc1ccc(NC(=O)CCC(=O)OCc2ccc(Br)cc2)cc1 | -52.6% | 29.1 µM [falling, partial curve, poor fit] | 29.1 µM [falling, single point]
43 | Nc1c(C(=O)N2CCOCC2)sc(=S)n1-c1ccccc1 | -31% | 29.1 µM [falling, single point] | 5.17 µM [falling, single point]
44 | COc1ccc(-c2c(C(=O)O)c(C(=O)O)c3n2CCC3)cc1 | -20.9% | 29.1 µM [falling, single point] | –
45 | Cc1ccc(CNC(=O)C2CCN(S(=O)(=O)c3cccnc3)CC2)cc1 | 12.2% | 29.1 µM [rising, single point] | –
46 | Clc1ccccc1Nc1nc2ccccc2o1 | -0.916% | – | –
47 | CCCCNc1ccc(S(=O)(=O)c2cccc([N+](=O)[O-])c2)cc1[N+](=O)[O-] | -2.22% | 14.6 µM [rising, partial curve, poor fit] | –
48 | COc1cc(C2Nc3ccc4ncccc4c3C3=C2C(=O)CCC3)cc(OC)c1O (configuration not stated) | -23.5% | 9.2 µM [rising, partial curve, poor fit] | –
49 | O=C(Cc1ccc(Cl)cc1)Nc1ccc(S(=O)(=O)N2CCOCC2)cc1 | -20.8% | 29.1 µM [rising, single point] | 0.0651 µM [falling, full curve, poor fit]
50 | COc1cccc(S(=O)(=O)NCc2ccc(C(=O)NCc3ccccn3)cc2)c1 | -13.3% | 29.1 µM [falling, single point] | –
51 | CCOC(=O)COc1ccc(CCNC(C)=O)cc1 | -9.92% | 0.92 µM [falling, full curve] | –
52 | COCCNC(=O)CN(c1ccc(OC)c(OC)c1)S(=O)(=O)c1ccc(C)cc1 | -2.87% | 6.51 µM [falling, single point] | –
53 | c1ccc(-c2nn[nH]n2)nc1 | 23.9% | 1.16 µM [falling, full curve, poor fit] | –
54 | O=C(CSc1ccc(-c2ccco2)nn1)Nc1ccc(F)cc1 | – | 20.6 µM [rising, single point] | –
55 | CN(C)CCN(CC1CCCN(Cc2ccccc2F)C1)C(=O)c1ccc(F)cc1 (configuration not stated) | 9.34% | 23.1 µM [rising, single point] | –
56 | O=C(CCN=C1NS(=O)(=O)c2ccccc21)Nc1ccc(Cl)cc1F | 9.49% | 0.517 µM [falling, single point] | –
57 | CC(=O)N1CCC2(CC1)C(C#N)=C(N)Oc1n[nH]c(CSc3ccc(C)cc3)c12 | -9.93% | 0.82 µM [falling, single point] | –
58 | COCCN1CCN(C(=O)c2ccc3nc(Cc4ccc(OC)c(OC)c4)oc3c2)CC1 | -36.7% | 5.8 µM [falling, full curve] | 7.31 µM [falling, partial curve, poor fit]

2 entries from above, tab-delimited:
Row	Structure (SMILES)	cell number change	AC50 [1]	AC50 [2]
45	Cc1ccc(CNC(=O)C2CCN(S(=O)(=O)c3cccnc3)CC2)cc1	12.2%	29.1 µM [rising, single point]	–
46	Clc1ccccc1Nc1nc2ccccc2o1	-0.916%	–	–

2 compounds picked at random from those above:
Row | Structure (SMILES) | cell number change | AC50 [1] | AC50 [2]
44 | COc1ccc(-c2c(C(=O)O)c(C(=O)O)c3n2CCC3)cc1 | -20.9% | 29.1 µM [falling, single point] | –
45 | Cc1ccc(CNC(=O)C2CCN(S(=O)(=O)c3cccnc3)CC2)cc1 | 12.2% | 29.1 µM [rising, single point] | –
